Patent US8962333

Assays:
[1] = test system: M.CbeI (Cbes_2437) methyltransferase (Caldicellulosiruptor bescii); assay: activity assay; conditions: m4C methylation of inner C in GGCC shown by sequencing trace peak heights; SAM, pH 8.5, 78 C; purified recombinant protein; protein details: C-terminal His-tag (pET24d, pDCW73), 0.837 kb ORF; only the site is given
[2] = test system: CbeI (Cbes_2438) restriction endonuclease (Caldicellulosiruptor bescii); assay: enzyme reaction in vitro; conditions: 75 C, 30 min; gel outcome not described in words; purified recombinant protein; only the site is given
[3] = biological target: T1, HaeIII restriction endonuclease (UniProt O68584); assay: enzyme reaction in vitro; conditions: 37 C, 30 min; gel outcome not described in words; purified native protein; protein details: New England Biolabs; only the site is given
T1 sequence (looked up, limits assumed): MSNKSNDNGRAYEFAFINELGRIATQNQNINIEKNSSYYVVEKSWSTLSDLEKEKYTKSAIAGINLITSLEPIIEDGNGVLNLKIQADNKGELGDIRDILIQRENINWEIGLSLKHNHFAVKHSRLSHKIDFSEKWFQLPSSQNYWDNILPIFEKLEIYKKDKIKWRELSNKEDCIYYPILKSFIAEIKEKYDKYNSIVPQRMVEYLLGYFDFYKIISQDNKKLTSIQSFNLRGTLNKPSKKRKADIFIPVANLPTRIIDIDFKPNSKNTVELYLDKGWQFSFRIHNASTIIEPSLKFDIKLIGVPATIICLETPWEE

Measured: activity on this sequence

GGCCAGCAAAAGGCCAGGAACCGTAAAAAGGCC (double strand) [pUC18 region with GGCC sites, unmethylated]
active: all assays above

For part of these data: Where a protein sequence is shown, tags need not be part of it. For part of these data: For at least one entry, the source does not settle the construct or the ends of the probe.
